These are literature values, as cited in patent US4412986A, “Nifedipine-containing solid preparation composition” (Yamanouchi Pharmaceutical Co. Ltd., priority 1977, dated 1983).

With `COC(=O)C1=C(C)NC(C)=C(C(=O)OC)C1c1ccccc1[N+](=O)[O-]` [nifedipine, 4-(2'-nitrophenyl)-2,6-dimethyl-3,5-dicarbomethoxy-1,4-dihydropyridine], the “bioavailability by oral administration” value is reported as “low bioavailability”.
